Some entries share one result that the patent states for a list of compounds.
Assay: surface tension of aqueous surfactant solutions with and without about 1% cyclodextrin (cyclodextrin compatibility)
Assay type: physicochemical
Conditions: in the presence of a typical cyclodextrin like hydroxypropyl-beta-cyclodextrin and methylated beta-cyclodextrin

Row | Molecule | elevation in surface tension
1 | dodecanolpoly(6)ethoxylate | > 10%
2 | CCCCCCCCCCCCOS(=O)(=O)[O-].[Na+] [sodium dodecyl sulfate] | > 10%
